Laboratory results: patent US9844584 (dated 2017)
Strings that start with PEPTIDE1 are HELM notation: dots part the residues, brackets hold end groups and non-standard residues.

Test: general procedure: Fmoc solid-phase peptide synthesis; NH2-Lys(Boc)-2-chloro-Trityl Resin; NH2-Ala-2-chloro-Trityl Resin; NH2-Arg(Pbf)-2-chloro-Trityl Resin; HBTU/HOBt/NMM
Conditions: whole synthesis, high-performance liquid chromatography

PEPTIDE1{E.A.R.P.A.L.L.T.S.R.L.R.F.I.P.K}$$$$V2.0
final purity (method not given): 97.3%
